The list shows a part of the results.
Compound: COc1ccc(Cn2ccc3ccc(C(=O)NO)cc32)cc1
Test: dose-dependent thermal stabilisation call (2D-TPP, DLPTP, 10% FDR) (binary (1 = stabilised)); higher = stabilised by the compound
Details: system: HL-60 intact cells; concentration range 0.04-10 µM

Sequences of proteins named here, by UniProt entry; tags and fusion partners are left off. A change or cut given only in a name is not applied to a line headed by its entry.
UniProt Q9BTW9: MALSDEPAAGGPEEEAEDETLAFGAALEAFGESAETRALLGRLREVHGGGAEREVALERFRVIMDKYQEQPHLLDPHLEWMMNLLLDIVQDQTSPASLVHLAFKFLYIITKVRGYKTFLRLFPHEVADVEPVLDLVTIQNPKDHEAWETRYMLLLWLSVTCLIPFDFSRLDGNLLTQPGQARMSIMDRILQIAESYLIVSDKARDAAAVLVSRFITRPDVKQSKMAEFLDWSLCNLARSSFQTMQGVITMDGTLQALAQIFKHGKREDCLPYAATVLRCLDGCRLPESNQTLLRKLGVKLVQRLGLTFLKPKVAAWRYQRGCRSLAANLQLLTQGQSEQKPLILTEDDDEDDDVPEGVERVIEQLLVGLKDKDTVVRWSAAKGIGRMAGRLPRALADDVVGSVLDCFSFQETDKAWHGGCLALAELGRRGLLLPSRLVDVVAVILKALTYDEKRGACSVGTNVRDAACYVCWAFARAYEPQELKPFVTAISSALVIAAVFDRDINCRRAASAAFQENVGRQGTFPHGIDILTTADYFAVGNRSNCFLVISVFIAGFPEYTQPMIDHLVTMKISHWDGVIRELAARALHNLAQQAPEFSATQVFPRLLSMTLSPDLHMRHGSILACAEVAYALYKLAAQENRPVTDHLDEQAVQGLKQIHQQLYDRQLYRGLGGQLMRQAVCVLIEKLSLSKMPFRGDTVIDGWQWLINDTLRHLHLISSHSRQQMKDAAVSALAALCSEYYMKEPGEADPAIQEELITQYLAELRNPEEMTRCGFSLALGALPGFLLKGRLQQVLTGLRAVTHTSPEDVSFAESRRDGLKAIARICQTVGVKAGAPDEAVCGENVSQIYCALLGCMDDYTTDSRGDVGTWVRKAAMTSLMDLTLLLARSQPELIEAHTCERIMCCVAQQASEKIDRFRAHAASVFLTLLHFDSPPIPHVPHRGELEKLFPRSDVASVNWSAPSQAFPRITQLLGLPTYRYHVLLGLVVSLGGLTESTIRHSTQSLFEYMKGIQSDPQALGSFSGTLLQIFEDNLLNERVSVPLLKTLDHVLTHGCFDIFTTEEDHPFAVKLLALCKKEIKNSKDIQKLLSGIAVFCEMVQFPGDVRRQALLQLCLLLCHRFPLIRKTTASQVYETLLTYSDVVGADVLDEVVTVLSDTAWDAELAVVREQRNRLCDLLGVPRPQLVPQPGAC
UniProt Q7L7X3: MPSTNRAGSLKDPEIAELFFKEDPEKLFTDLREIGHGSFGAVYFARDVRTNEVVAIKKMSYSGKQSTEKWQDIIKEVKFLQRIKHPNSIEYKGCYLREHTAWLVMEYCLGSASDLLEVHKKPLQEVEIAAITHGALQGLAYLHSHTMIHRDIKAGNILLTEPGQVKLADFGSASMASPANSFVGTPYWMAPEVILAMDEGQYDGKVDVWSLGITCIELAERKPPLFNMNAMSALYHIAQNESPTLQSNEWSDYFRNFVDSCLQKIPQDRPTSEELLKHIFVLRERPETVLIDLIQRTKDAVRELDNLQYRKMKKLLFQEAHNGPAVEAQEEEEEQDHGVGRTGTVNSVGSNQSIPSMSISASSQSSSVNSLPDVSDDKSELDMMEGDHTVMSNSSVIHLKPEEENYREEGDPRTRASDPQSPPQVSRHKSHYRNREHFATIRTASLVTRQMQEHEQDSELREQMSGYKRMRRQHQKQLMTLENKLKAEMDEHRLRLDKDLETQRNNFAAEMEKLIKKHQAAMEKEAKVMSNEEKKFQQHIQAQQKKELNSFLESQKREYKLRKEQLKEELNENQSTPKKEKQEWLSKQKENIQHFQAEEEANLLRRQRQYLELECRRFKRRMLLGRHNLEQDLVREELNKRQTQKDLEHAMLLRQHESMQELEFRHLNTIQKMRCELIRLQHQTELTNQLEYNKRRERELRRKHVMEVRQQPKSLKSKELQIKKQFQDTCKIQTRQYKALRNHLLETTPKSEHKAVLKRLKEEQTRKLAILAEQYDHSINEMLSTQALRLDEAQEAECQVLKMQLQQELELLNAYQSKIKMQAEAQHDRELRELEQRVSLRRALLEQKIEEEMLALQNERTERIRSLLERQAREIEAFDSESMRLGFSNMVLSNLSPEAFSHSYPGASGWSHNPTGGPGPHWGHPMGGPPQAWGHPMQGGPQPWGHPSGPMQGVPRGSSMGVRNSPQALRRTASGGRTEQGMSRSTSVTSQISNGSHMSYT
UniProt Q8NE00: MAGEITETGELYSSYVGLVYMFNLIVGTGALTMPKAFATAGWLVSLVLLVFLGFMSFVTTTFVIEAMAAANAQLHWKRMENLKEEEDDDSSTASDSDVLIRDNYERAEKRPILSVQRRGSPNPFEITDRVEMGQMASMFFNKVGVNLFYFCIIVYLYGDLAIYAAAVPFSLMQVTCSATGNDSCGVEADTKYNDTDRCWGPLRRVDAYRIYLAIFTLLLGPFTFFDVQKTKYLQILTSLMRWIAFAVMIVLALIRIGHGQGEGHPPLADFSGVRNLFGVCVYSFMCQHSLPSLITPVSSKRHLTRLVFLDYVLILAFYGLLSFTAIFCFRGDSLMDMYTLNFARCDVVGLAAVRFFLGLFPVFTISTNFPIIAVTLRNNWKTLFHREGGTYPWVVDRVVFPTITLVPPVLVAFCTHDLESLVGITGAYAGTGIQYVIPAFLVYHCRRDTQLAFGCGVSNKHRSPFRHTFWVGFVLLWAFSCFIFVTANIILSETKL
UniProt P67936, whole entry: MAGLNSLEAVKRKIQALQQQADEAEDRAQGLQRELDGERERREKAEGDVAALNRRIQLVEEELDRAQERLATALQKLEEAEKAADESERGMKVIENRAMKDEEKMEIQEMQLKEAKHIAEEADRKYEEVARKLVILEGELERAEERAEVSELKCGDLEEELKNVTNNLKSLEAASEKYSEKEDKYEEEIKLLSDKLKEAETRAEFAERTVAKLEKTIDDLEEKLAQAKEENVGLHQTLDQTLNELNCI
UniProt Q96HV5: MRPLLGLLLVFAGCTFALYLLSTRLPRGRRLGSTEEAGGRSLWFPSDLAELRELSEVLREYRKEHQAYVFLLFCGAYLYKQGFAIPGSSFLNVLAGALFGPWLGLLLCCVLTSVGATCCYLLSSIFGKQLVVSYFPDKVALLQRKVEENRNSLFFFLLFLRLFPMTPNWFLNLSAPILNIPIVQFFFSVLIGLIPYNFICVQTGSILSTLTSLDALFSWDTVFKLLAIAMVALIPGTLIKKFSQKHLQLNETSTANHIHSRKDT
UniProt Q13395: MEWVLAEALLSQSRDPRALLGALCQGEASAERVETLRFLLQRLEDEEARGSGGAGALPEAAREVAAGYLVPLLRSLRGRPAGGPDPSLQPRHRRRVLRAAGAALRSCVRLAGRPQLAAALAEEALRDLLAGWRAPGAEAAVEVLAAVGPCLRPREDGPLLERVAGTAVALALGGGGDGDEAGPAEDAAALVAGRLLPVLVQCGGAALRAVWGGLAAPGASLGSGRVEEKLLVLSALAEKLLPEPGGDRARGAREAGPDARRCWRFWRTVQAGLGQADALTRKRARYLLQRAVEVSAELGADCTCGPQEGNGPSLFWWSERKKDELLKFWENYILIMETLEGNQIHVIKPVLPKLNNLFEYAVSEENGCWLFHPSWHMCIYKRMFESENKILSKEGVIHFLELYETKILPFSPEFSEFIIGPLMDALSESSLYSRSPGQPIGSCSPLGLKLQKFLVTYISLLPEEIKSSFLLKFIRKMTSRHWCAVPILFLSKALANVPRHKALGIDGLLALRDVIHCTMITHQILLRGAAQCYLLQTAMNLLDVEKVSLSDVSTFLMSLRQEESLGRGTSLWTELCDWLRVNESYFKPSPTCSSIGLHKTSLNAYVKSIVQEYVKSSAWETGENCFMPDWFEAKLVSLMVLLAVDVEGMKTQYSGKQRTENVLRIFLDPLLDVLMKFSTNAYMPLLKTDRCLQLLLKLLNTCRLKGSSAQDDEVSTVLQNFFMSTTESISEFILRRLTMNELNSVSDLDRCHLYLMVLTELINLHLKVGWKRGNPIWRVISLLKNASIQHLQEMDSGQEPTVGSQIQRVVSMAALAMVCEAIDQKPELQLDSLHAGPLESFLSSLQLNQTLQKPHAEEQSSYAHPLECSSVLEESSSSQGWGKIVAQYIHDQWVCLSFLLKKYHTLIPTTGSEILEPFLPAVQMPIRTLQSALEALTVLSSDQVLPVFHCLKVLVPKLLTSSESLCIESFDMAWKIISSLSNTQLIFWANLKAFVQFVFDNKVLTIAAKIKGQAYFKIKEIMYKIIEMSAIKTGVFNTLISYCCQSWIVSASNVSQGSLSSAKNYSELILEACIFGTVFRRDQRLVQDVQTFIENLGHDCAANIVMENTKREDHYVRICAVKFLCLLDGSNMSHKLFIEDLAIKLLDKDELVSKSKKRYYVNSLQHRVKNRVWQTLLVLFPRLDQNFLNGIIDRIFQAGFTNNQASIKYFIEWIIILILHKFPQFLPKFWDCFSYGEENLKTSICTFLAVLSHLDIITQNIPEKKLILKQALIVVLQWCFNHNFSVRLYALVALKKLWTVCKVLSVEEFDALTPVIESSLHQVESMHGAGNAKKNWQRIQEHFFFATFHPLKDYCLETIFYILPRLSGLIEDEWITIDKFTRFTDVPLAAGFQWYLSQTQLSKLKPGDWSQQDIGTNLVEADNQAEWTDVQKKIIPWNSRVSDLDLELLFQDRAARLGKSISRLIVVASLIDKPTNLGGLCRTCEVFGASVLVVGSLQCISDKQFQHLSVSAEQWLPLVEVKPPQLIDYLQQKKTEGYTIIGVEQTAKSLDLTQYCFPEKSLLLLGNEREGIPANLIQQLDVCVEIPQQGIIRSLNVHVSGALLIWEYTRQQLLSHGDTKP
UniProt Q9NX00: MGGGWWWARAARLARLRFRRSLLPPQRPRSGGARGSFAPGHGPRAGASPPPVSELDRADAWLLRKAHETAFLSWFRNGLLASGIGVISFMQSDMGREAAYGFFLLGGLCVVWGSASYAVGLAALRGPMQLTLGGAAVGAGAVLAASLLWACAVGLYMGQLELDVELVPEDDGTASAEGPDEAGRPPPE
UniProt P57088: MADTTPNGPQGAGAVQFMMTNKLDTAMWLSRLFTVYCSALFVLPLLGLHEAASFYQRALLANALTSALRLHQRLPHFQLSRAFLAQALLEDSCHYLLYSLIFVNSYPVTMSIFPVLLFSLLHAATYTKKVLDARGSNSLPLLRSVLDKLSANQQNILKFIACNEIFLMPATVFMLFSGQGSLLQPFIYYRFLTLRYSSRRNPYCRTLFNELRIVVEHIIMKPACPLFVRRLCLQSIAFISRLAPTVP
UniProt Q5JTV8: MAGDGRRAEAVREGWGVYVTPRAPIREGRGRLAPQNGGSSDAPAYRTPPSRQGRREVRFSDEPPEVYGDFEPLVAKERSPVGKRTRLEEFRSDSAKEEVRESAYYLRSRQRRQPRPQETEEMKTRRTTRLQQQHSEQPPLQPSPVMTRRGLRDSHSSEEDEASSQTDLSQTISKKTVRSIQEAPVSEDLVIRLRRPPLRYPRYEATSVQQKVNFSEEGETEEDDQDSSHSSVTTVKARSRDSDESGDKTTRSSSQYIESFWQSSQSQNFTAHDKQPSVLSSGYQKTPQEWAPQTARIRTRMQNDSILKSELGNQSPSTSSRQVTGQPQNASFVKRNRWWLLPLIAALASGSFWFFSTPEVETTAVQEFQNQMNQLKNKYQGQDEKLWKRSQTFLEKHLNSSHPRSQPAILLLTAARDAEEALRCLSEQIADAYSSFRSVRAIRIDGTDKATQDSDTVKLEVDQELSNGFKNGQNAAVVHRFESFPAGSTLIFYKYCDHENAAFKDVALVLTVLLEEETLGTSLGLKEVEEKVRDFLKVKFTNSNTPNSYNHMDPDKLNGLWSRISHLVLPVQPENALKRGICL
UniProt O95455: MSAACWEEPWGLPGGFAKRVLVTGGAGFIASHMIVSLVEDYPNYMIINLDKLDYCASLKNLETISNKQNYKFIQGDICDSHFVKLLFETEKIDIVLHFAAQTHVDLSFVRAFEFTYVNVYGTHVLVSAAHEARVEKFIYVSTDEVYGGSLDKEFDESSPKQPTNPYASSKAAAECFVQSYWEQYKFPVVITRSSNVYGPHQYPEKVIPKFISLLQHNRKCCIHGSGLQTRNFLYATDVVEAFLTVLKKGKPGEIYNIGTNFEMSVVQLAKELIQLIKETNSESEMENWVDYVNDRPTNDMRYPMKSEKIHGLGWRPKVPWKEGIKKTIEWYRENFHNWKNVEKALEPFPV
UniProt Q6I9Y2: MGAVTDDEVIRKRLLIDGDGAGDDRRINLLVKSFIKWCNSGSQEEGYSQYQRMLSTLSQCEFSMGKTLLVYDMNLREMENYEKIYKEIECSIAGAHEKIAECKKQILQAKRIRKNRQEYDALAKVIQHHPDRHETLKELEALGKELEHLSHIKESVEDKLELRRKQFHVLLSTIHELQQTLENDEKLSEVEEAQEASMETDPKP

Target | dose-dependent thermal stabilisation call
TBCD (UniProt Q9BTW9) | inactive: 0
TAOK1 (UniProt Q7L7X3) | inactive: 0
TMEM104 (UniProt Q8NE00) | inactive: 0
TPM4 (UniProt P67936) | inactive: 0
TMEM41A (UniProt Q96HV5) | inactive: 0
TARBP1 (UniProt Q13395) | inactive: 0
TMEM160 (UniProt Q9NX00) | inactive: 0
TMEM33 (UniProt P57088) | inactive: 0
TOR1AIP1 (UniProt Q5JTV8) | inactive: 0
TGDS (UniProt O95455) | inactive: 0
THOC7 (UniProt Q6I9Y2) | inactive: 0

Reformatted: entries from further up.

| Target | dose-dependent thermal stabilisation call |
| --- | --- |
| TARBP1 (UniProt Q13395) | inactive: 0 |
| TMEM160 (UniProt Q9NX00) | inactive: 0 |

From the supplement of paper PMC7666118
